Laboratory results taken from paper doi:10.1101/2020.12.16.423147.
Results are given in words; binding and its absence hold for the method and conditions named. For part of these data: Binding seen in cells or lysates may run through a third protein. Some entries that bind do so weakly or less than the wild type. Sequences can lack the tags named with a protein.

Protein sequences, listed by entry. Tags and fused reporters are not part of them. Lines headed by an entry give the natural chain unless they say otherwise; changes in a name come on top.
UniProt P20340: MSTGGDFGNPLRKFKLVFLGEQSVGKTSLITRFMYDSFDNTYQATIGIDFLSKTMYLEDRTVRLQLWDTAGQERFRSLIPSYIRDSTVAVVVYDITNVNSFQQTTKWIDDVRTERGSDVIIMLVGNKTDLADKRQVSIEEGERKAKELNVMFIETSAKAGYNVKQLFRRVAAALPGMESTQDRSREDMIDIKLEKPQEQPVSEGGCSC

T1: GFP-VPS13B-C (human) (UniProt Q7Z7G8)
T1 sequence: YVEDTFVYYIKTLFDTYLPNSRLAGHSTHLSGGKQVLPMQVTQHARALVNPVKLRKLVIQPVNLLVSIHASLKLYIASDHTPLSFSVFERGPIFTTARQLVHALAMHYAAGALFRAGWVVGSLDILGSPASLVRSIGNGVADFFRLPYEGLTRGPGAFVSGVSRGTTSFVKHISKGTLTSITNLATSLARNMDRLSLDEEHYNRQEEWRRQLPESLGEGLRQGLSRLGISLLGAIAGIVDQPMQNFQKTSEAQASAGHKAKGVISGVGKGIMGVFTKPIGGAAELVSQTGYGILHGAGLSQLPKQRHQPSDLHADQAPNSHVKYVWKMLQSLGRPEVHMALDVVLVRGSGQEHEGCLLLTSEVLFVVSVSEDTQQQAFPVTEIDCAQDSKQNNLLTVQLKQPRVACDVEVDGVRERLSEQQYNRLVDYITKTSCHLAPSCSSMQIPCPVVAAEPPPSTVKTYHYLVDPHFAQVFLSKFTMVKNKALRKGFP

B1: His-VPS13B-PH (domain or fragment, UniProt Q7Z7G8-2 3732-3997)
chain: RLGISLLGAIAGIVDQPMQNFQKTSEAQASAGHKAKGVISGVGKGIMGVFTKPIGGAAELVSQTGYGILHGAGLSQLPKQRHQPSDLHADQAPNSHVKYVWKMLQSLGRPEVHMALDVVLVRGSGQEHEGCLLLTSEVLFVVSVSEDTQQQAFPVTEIDCAQDSKQNNLLTVQLKQPRVACDVEVDGVRERLSEQQYNRLVDYITKTSCHLAPSCSSMQIPCPVVAAEPPPSTVKTYHYLVDPHFAQVFLSKFTMVKNKALRKGFP

How the values were obtained:
GFP-VPS13B-C (human) = molecular target: T1, GFP-VPS13B-C (human); experiment: co-IP
GST-Rab6 T27N (human) = GST-Rab6 T27N (human) (UniProt P20340); experiment: pull-down
GST-Rab6 Q72L (human) = GST-Rab6 Q72L (human) (UniProt P20340); experiment: pull-down

Molecule	binding (GFP-VPS13B-C (human))	binding (GST-Rab6 T27N (human))	binding (GST-Rab6 Q72L (human))
Halo-Rab6 (from UniProt P20340 1-208)	binds	–	–
B1	–	binds	binds
